Literature values as cited in patent US5637320A, “Controlled absorption naproxen formulation for once-daily administration” (Elan Corporation, PLC, priority 1990, dated 1997).

Assays:
[1] = generally, compared with administration as the free acid
[2] = reportedly
postpartum women = settings: sixty postpartum women, oral
[3] = system: patients with rheumatoid arthritis; settings: twenty-four patients with rheumatoid arthritis
[4] = by many regulatory agencies

COc1ccc2cc([C@H](C)C(=O)O)ccc2c1 [naproxen sodium]
peak plasma concentrations versus naproxen free acid [1]: higher and are attained more rapidly

COc1ccc2cc([C@H](C)C(=O)O)ccc2c1 [naproxen, (S)-6-methoxy-methyl-2-naphthaleneacetic acid]
Plasma naproxen concentrations required for anti-inflammatory or analgesic effects [2]: 30 to 90 µg/mL
plasma naproxen levels at which reduced pain intensity was demonstrated (postpartum women): 30 to 70 µg/mL
plasma naproxen levels at which clinical response occurred [3]: above 50 μg/ml
toxicity [4]: acceptably non-toxic
